Test results taken from article doi:10.1101/2023.07.18.549521.
Results are given in words; binding and its absence hold for the method and conditions named. Some entries that bind do so weakly or less than the wild type. Where a sequence is shown, tags or fusion partners need not be part of it.

The chains behind the UniProt entries cited, without tags or fusion partners.
UniProt O95166: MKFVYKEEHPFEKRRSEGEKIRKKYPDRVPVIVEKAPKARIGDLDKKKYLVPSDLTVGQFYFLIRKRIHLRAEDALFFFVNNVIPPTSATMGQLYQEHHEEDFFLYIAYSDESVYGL

Biological target: T1, full-length tepsin-GST (residues 1-525) (UniProt Q96N21)
T1 sequence: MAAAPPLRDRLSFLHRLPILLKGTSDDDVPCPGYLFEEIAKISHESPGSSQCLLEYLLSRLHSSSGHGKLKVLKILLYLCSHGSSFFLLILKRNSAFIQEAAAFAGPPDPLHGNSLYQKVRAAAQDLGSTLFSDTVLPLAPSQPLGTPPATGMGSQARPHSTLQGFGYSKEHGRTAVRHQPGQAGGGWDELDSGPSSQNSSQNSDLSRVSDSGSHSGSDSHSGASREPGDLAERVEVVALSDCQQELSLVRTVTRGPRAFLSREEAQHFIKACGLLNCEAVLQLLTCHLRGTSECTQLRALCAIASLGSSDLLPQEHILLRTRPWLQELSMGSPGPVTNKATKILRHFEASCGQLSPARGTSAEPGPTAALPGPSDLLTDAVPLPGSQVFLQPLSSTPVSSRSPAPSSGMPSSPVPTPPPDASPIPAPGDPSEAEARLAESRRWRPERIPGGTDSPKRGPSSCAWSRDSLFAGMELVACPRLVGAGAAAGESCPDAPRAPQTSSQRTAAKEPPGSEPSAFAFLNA
Assay: pull-down

Substance: His6x-GABARAP (residues 1-117) (from UniProt O95166 1-117)
- binding: binds weakly
